Reference: patent US20250186411A1, “Methods of Treating Disorders Associated with Overactivation of IKKB” (The United States Government as represented by the …, priority 2023, published 2025)

Tests used:
[1] = tested on: KLF15 promoter (pEZX-FR03hKLF15p human podocytes); assay: Half maximal effective concentration (EC50) of KLF15 reporter activity; assay type: cell-based; conditions: dose-response
Procedure: The EC50 was determined using nonlinear regression and then choosing the equation of Sigmoidal function, 4PL method (X is log(concentration); or the equation of log(agonist) vs. response—variable slope).
To identify small molecule inducers of KLF15 expression in human podocytes, human podocytes were generated with a dual reporter, firefly luciferase directed at the KLF15 promoter region and renilla luciferase (pEZX-FR03hKLF15p). […] The positive controls were inducers of KLF15 expression, dexamethasone (DEX) and all-trans retinoic acid (atRA), and […] and cell-free wells served as negative controls.

[2] = tested on: KLF15 promoter (pEZX-FR03hKLF15p human podocytes); assay: KLF15 reporter high-throughput screening assay in human podocytes (firefly/renilla luciferase); assay type: cell-based; conditions: NCI library hits, 24 hours, read-out: Fold Change (KLF15 reporter activity)
Procedure: Briefly, these podocytes proliferate under permissive conditions (gamma interferon at 33° C.), but differentiate under nonpermissive conditions (37° C.).
The amplified fragment contains MluI and PmeI RE sites and was subcloned into the MluI and PmeI cloning site of the pEZX-FR03 Firefly luciferase (FLuc) and Renilla luciferase (Rluc) reporter cloning vector (GeneCopoeia) to generate pEZX-FR03hKLF15p. Following verification of the sequence by restriction and μsequencing, the pEZX-FR03hKLF15p construct (which contains a puromycin resistance cassette) was transfected into human podocytes followed by selection in puromycin-containing media for 2 weeks. Surviving podocytes clones were pooled together for further analysis.
The library of compounds from the National Cancer Institute (Approved Oncology Drugs Set VI; Natural Products Set III; Diversity Set V; and Mechanistic Diversity Set II) were added to a final concentration of 1 μM in 0.5% DMSO in the low FBS cell culture media (0.2% FBS) using liquid handling system PipetMax (Gilson). After 24 hours incubation at 37° C., the Luc-Pair™ Duo-Luciferase HT Assay Kit (GeneCopoeia LF015) were used and firefly and renilla luciferase activity was determined using the SpectraMax M3 (Molecular Devices). Positive controls were all-trans retinoic acid (atRA) (1 μM) and dexamethasone (DEX) (1 μM). Negative controls were DMSO and cell-free media. […]

**Q.** How did the EC50 [1] turn out when CNC(=O)c1ccccc1Sc1ccc2c(/C=C/c3ccccn3)n[nH]c2c1 [C-22, Axitinib, reference compound] was run?
**A.** ~28.7 µM

**Q.** What about the fold induction at 1 µM [2] of the same compound?
**A.** 3.06
